Results on 1 substance are retold here after article PMC12381239.

The chains behind the UniProt entries cited, without tags or fusion partners.
UniProt Q13283: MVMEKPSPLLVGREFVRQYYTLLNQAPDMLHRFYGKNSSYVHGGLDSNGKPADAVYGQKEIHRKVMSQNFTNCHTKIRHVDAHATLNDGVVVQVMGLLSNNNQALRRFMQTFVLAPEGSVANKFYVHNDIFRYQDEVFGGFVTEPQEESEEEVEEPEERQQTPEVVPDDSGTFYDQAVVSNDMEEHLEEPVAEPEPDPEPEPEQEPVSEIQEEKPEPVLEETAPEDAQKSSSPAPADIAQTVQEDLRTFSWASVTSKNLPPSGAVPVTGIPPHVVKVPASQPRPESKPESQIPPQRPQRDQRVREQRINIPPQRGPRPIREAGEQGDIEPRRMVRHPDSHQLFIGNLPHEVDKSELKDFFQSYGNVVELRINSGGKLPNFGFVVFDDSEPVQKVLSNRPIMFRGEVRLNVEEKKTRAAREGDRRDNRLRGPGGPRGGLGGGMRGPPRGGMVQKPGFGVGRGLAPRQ

These are yes or no findings as the source states them, for the method shown. In cells and extracts the contact can be indirect. These calls come from enrichment with a bait or labelling near it, and not all partners need be listed.

The test addresses T1, asparagine endopeptidase (AEP) (human) (UniProt Q99538).
T1 sequence: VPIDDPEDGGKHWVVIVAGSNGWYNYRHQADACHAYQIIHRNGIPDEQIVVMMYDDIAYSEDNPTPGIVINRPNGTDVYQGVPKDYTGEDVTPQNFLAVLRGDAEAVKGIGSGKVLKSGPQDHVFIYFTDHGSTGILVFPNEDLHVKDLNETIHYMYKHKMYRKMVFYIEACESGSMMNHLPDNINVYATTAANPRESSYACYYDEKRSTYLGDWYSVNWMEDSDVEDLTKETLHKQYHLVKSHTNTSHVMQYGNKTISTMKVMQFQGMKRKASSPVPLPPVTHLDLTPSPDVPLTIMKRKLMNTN
In words: affinity purification with mass spectrometry; IP with anti-AEP antibody (1:50) from AEP-KO U2OS infected with human AEP lentivirus, 50 umol/L cisplatin or vehicle for 6 h; IP buffer; LC-MS/MS.

Consider “Ras-GTPase-activating protein (GAP)-binding protein 1 (G3BP1) (from UniProt Q13283 1-466)”, for which the binding result is on record as “binds”.
